Data published in publication PMC9881158, “The DEAD-box protein Dbp6 is an ATPase and RNA annealase interacting with the peptidyl transferase center (PTC) of the ribosome” (Nucleic Acids Research, 2023).
Substitutions are numbered along the chain they refer to. For at least one entry, the source does not settle the construct or the ends of the probe. At least one verdict was read from the data and is not stated in words by the source. Where a protein sequence is shown, tags need not be part of it.

Legend:
Assay in all cases: EMSA
Conditions in all cases: 5 mM ATP, binding unchanged; EMSA: 1 nM 32P-RNA, RNasin, 15 min at 30 C, native PAGE in TBE; recombinant protein; protein details: N-terminal His6; label: 32P on ss38-mer
[1] = target: T1, Dbp6 M-I K240A (Saccharomyces cerevisiae) (UniProt P53734)
T1 sequence (looked up, limits assumed): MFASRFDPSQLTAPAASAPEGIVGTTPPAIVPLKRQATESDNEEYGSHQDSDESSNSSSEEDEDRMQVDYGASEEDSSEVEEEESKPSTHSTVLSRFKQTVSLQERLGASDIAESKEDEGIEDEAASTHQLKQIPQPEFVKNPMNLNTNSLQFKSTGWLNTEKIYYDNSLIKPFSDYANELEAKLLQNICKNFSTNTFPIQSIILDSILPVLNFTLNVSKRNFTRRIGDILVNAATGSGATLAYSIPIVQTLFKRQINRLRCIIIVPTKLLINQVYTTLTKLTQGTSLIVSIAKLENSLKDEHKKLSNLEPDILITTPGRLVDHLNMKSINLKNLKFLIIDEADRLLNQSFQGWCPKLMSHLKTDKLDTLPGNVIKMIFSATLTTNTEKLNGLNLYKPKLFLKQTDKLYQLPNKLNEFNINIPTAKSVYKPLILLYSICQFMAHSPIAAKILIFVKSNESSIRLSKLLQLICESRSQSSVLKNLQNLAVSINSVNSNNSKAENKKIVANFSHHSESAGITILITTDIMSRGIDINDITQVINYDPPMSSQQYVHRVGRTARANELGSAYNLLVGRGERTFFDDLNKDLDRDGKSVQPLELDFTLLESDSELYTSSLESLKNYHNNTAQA

[2] = target: T2, Dbp6 ΔN del24-128 (Saccharomyces cerevisiae) (UniProt P53734)
T2 sequence (looked up, limits assumed): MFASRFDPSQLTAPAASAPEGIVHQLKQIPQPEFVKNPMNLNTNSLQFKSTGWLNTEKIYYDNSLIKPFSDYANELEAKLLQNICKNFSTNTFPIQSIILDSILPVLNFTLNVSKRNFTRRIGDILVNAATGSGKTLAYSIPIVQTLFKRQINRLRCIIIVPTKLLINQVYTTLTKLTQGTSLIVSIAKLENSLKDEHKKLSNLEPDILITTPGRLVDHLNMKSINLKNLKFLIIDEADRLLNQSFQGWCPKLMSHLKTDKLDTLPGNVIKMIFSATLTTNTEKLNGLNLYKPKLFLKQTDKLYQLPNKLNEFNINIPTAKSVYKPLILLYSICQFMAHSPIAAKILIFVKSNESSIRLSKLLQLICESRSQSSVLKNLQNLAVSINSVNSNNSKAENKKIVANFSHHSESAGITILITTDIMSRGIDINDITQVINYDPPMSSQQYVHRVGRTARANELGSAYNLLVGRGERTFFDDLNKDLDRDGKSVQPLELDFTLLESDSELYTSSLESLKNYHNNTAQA

[3] = target: T3, Dbp6 M-II E342A (Saccharomyces cerevisiae) (UniProt P53734)
T3 sequence (looked up, limits assumed): T1 sequence (looked up, limits assumed) with A240K, E342A

Measured: binding result

GGGAGACCGGAAUUCAUCAUUUCAGUGUAGCGGUUCUGACGUGCAAAUCGAUCGUCGA / CAGAACCGCUACACUGAAAUGAUCAAUUCCGGUCUCCC [ds38/58 hemi-duplex]
binds: all assays above
